## Results from one PubChem assay

From PubChem BioAssay record AID1080 (Emory University Molecular Libraries Screening Center, 2008).

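A cell line overexpressing EP4 prostanoid receptors, stimulated with a low (about EC15) PGE2 dose; cAMP read by HTRF FRET after a short room-temperature incubation.
Compounds were tested at 20 µM final. A low (about EC15) PGE2 dose was present.
Percent cAMP induction as a fraction of the 1 µM PGE2 response, averaged over three replicates; a higher value means more cAMP.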

Values are in %.
Common to all entries: measured here: EP4 receptor counter-screen.
This is a side read-out of the assay, for part of the compounds, not drawn at random.

structure | setting | cAMP induction (%)
Cc1ccc(N=Nc2c(N)[nH]n3c(=O)c4c(nc23)CCCC4)cc1 | percent of 1 uM PGE2 response; plus low (about EC15) PGE2 agonist | 15.99
Cc1cc(C)c2nc(N3CCCN(C(=O)c4ccco4)CC3)c(C#N)cc2c1 | percent of 1 uM PGE2 response; plus low (about EC15) PGE2 agonist | -6.677
C=CCn1c(=O)c2c3c(sc2n2c(Nc4ccc(OC)cc4)nnc12)CCCC3 | percent of 1 uM PGE2 response; plus low (about EC15) PGE2 agonist | -7.193
C=CCN1C(=O)/C(=C/c2ccc(O)c(OC)c2)S/C1=N/c1nccs1 | percent of 1 uM PGE2 response; plus low (about EC15) PGE2 agonist | -7.197
O=C(CSCc1cccc(Cl)c1)Nc1ccccc1-c1ccccc1 | percent of 1 uM PGE2 response; plus low (about EC15) PGE2 agonist | 6.447
CCSc1ccccc1C(=O)n1nnc2ccccc21 | percent of 1 uM PGE2 response; plus low (about EC15) PGE2 agonist | -18.59
CCOC(=O)c1c(-c2cccs2)csc1NC(=O)CN1CCOCC1 | percent of 1 uM PGE2 response; plus low (about EC15) PGE2 agonist | -4.963
Cc1cc(OCC(=O)OC(C)C)c2c3c(c(=O)oc2c1)CCCC3 | - | -3.177
Cc1cc(NC(=O)C2=C(O)c3ccccc3S(=O)(=O)N2C)no1 | percent of 1 uM PGE2 response; plus low (about EC15) PGE2 agonist | 9.26
NC(=O)CSc1nnc(-c2cccc(S(=O)(=O)N3CCOCC3)c2)n1C1CCCCCC1 | percent of 1 uM PGE2 response; plus low (about EC15) PGE2 agonist | 6.353
Cc1ccccc1C(=N)c1ccccc1Cc1cccc2ccccc12 | percent of 1 uM PGE2 response; plus low (about EC15) PGE2 agonist | 5.683
CC(=O)c1ccc(S(=O)(=O)NCCCC(=O)NCCc2ccccn2)cc1 | percent of 1 uM PGE2 response; plus low (about EC15) PGE2 agonist | -8.087
C=CCn1c(SCc2c(C)noc2C)nc2sc(C)c(C)c2c1=O | percent of 1 uM PGE2 response; plus low (about EC15) PGE2 agonist | 1.197
[N-]=[N+]=Nc1ccc(C(=O)CSC[C@H](NC(=O)CC[C@H](N)C(=O)O)C(=O)NCC(=O)O)cc1 | percent of 1 uM PGE2 response; plus low (about EC15) PGE2 agonist | -2.773
O=C(NCc1ccc(F)cc1)c1ccccc1OCc1ccccc1 | percent of 1 uM PGE2 response; plus low (about EC15) PGE2 agonist | -14.34
O=C(Nc1ccccc1-c1nc2ccccc2s1)C1=COCCO1 | percent of 1 uM PGE2 response; plus low (about EC15) PGE2 agonist | 2.81
CCOC1(OCC)C(c2ccc(N)cc2)C(C#N)(C#N)C1(OCC)OCC (configuration not stated) | percent of 1 uM PGE2 response; plus low (about EC15) PGE2 agonist | -1.363
C=CCCC1(C)C(=O)N(c2ccccc2)c2ccccc21 (configuration not stated) | percent of 1 uM PGE2 response; plus low (about EC15) PGE2 agonist | 4.283
CC(Sc1ccc2ccccc2n1)C(=O)O (configuration not stated) | percent of 1 uM PGE2 response; plus low (about EC15) PGE2 agonist | 84.65
COc1ccc(OC)c(C(=O)CSc2nnc(Cc3cccs3)n2CCc2ccccc2)c1 | percent of 1 uM PGE2 response; plus low (about EC15) PGE2 agonist | -4.013
O=c1c2ccccc2n(Cc2ccc(Cl)cc2)c(=O)n1Cc1ccco1 | percent of 1 uM PGE2 response; plus low (about EC15) PGE2 agonist | 2.757
CCc1cc2cc(C)cc(C)c2nc1SCC(=O)N1CCCC1 | percent of 1 uM PGE2 response; plus low (about EC15) PGE2 agonist | -8.283
CCn1nnc(-c2ccccc2NC(=O)c2cc(OC)cc(OC)c2)n1 | percent of 1 uM PGE2 response; plus low (about EC15) PGE2 agonist | 2.567
COc1cc(-c2nc(-c3cccc(C)c3)no2)cc(OC)c1OC | percent of 1 uM PGE2 response; plus low (about EC15) PGE2 agonist | -5.567
CCOC(=O)c1sc2nc(C)nc(N3CCN(c4ncccn4)CC3)c2c1C | percent of 1 uM PGE2 response; plus low (about EC15) PGE2 agonist | 4.127
CCCCOP(=O)(OCCCC)C(Nc1ccccc1)c1ccc2c(c1)OCO2 (configuration not stated) | percent of 1 uM PGE2 response; plus low (about EC15) PGE2 agonist | -11.48
CCCCNc1nc2c(S(=O)(=O)c3ccccc3)nnn2c2ccccc12 | percent of 1 uM PGE2 response; plus low (about EC15) PGE2 agonist | 57.48
CCOC(=O)CSc1nnc2n(C3CCCCC3)c(=O)c3c4c(sc3n12)CCCC4 | percent of 1 uM PGE2 response; plus low (about EC15) PGE2 agonist | -7.593
Cc1ccc(-c2csc3ncnc(N4CCc5ccccc5C4)c23)cc1 | percent of 1 uM PGE2 response; plus low (about EC15) PGE2 agonist | 8.613
COc1cccc2[nH]c3c(N4CC(C)CC(C)C4)ncnc3c12 (configuration not stated) | percent of 1 uM PGE2 response; plus low (about EC15) PGE2 agonist | -4.47
O=C(Nc1ccccc1Oc1ccccc1)c1ccc(Br)o1 | percent of 1 uM PGE2 response; plus low (about EC15) PGE2 agonist | 2.837
CCCCOc1c(Br)cc(/C=N/O)cc1OCC | percent of 1 uM PGE2 response; plus low (about EC15) PGE2 agonist | 5.853
COc1ccccc1/C=C/C(=O)OCC(=O)Nc1ccccc1Sc1ccccc1 | percent of 1 uM PGE2 response; plus low (about EC15) PGE2 agonist | -4.203
CC(C)(C)C1CCC(=NNc2ccc(S(N)(=O)=O)cc2[N+](=O)[O-])CC1 (configuration not stated) | percent of 1 uM PGE2 response; plus low (about EC15) PGE2 agonist | 4.907
c1ccc(-c2cc(-c3ccncc3)nc3ccc4ccccc4c23)cc1 | percent of 1 uM PGE2 response; plus low (about EC15) PGE2 agonist | -22.36
Cc1sc(NC(=O)Cc2ccc3c(c2)OCO3)nc1-c1ccc2c(c1)CCN2C(=O)c1cccc(F)c1 | percent of 1 uM PGE2 response; plus low (about EC15) PGE2 agonist | 2.65

4 of the entries, repeated:

structure	setting	cAMP induction (%)
O=c1c2ccccc2n(Cc2ccc(Cl)cc2)c(=O)n1Cc1ccco1	percent of 1 uM PGE2 response; plus low (about EC15) PGE2 agonist	2.757
Cc1cc(C)c2nc(N3CCCN(C(=O)c4ccco4)CC3)c(C#N)cc2c1	percent of 1 uM PGE2 response; plus low (about EC15) PGE2 agonist	-6.677
C=CCn1c(SCc2c(C)noc2C)nc2sc(C)c(C)c2c1=O	percent of 1 uM PGE2 response; plus low (about EC15) PGE2 agonist	1.197
CCOC(=O)c1sc2nc(C)nc(N3CCN(c4ncccn4)CC3)c2c1C	percent of 1 uM PGE2 response; plus low (about EC15) PGE2 agonist	4.127